Assay results reported in patent publication US20250283871A1, “COMPOSITIONS AND METHODS FOR MODULATING THE INTERACTION BETWEEN SS18-SSX FUSION ONCOPROTEIN AND NUCLEOSOMES” (Dana-Farber Cancer Institute, Inc., priority 2020, published 2025).

Test system: BAF complex subunits and histone proteins
Assay: Mass spectrometry proteomics of purified HA-SS18 WT and HA-SS18-SSX1 complexes (Tables 5A-5E)
Set-up: species or system human
[1] = HA-SS18SSX1_CHR_peptides: protein identified in the HA-SS18-SSX1 purification from solubilized chromatin (CHR), HEK-293T
[2] = HA-SS18SSX1_NE_peptides: protein co-purified with HA-SS18-SSX1 BAF complexes from soluble nuclear extract (NE), HEK-293T cells
[3] = HA-SS18WT_CHR_peptides: HA-SS18 WT purification from nuclease-treated solubilized chromatin (CHR), HEK-293T, label = protein identified
[4] = HA-SS18WT_CHR_peptides: protein identified in HA-SS18 WT BAF complex purification from nuclease-treated solubilized chromatin (CHR), HEK-293T
[5] = HA-SS18WT_NE_peptides: HA-SS18 WT complexes purified from nuclear extract (NE), HEK-293T, label = protein identified (Gene Symbol)
[6] = HA-SS18SSX1 purification, NE (soluble nuclear extract) fraction, HEK-293T, peptides per identified protein

Molecule	Total (total peptides) [1]	Unique (unique peptides) [1]	Total (HA-SS18SSX1_CHR_peptides, total peptides of the identified protein)	Unique (HA-SS18SSX1_CHR_peptides, unique peptides of the identified protein)	Total (peptides) [2]	Unique (peptides) [2]	Total (peptides) [3]	Unique (peptides) [3]	Total (total peptides) [4]	Unique (unique peptides) [4]	Total (peptides) [5]	Unique (peptides) [5]	Total (total peptides) [6]	Unique (unique peptides) [6]
NAT10 (protein, UniProt Q9H0A0 1-1025, looked up) RNA cytidine acetyltransferase: MHRKKVDNRIRILIENGVAERQRSLFVVVGDRGKDQVVILHHMLSKATVKARPSVLWCYKKELGFSSHRKKRMRQLQKKIKNGTLNIKQDDPFELFIAATNIRYCYYNETHKILGNTFGMCVLQDFEALTPNLLARTVETVEGGGLVVILLRTMNSLKQLYTVTMDVHSRYRTEAHQDVVGRFNERFILSLASCKKCLVIDDQLNILPISSHVATMEALPPQTPDESLGPSDLELRELKESLQDTQPVGVLVDCCKTLDQAKAVLKFIEGISEKTLRSTVALTAARGRGKSAALGLAIAGAVAFGYSNIFVTSPSPDNLHTLFEFVFKGFDALQYQEHLDYEIIQSLNPEFNKAVIRVNVFREHRQTIQYIHPADAVKLGQAELVVIDEAAAIPLPLVKSLLGPYLVFMASTINGYEGTGRSLSLKLIQQLRQQSAQSQVSTTAENKTTTTARLASARTLYEVSLQESIRYAPGDAVEKWLNDLLCLDCLNITRIVSGCPLPEACELYYVNRDTLFCYHKASEVFLQRLMALYVASHYKNSPNDLQMLSDAPAHHLFCLLPPVPPTQNALPEVLAVIQVCLEGEISRQSILNSLSRGKKASGDLIPWTVSEQFQDPDFGGLSGGRVVRIAVHPDYQGMGYGSRALQLLQMYYEGRFPCLEEKVLETPQEIHTVSSEAVSLLEEVITPRKDLPPLLLKLNERPAERLDYLGVSYGLTPRLLKFWKRAGFVPVYLRQTPNDLTGEHSCIMLKTLTDEDEADQGGWLAAFWKDFRRRFLALLSYQFSTFSPSLALNIIQNRNMGKPAQPALSREELEALFLPYDLKRLEMYSRNMVDYHLIMDMIPAISRIYFLNQLGDLALSAAQSALLLGIGLQHKSVDQLEKEIELPSGQLMGLFNRIIRKVVKLFNEVQEKAIEEQMVAAKDVVMEPTMKTLSDDLDEAAKEFQEKHKKEVGKLKSMDLSEYIIRGDDEEWNEVLNKAGPNASIISLKSDKKRKLEAKQEPKQSKKLKNRETKNKKDMKLKRKK	51	33	1	1	2	2	17	16	1	1	3	3	–	–
BRD7 (protein, UniProt Q9NPI1 1-651, looked up) Bromodomain-containing …: MGKKHKKHKSDKHLYEEYVEKPLKLVLKVGGNEVTELSTGSSGHDSSLFEDKNDHDKHKDRKRKKRKKGEKQIPGEEKGRKRRRVKEDKKKRDRDRVENEAEKDLQCHAPVRLDLPPEKPLTSSLAKQEEVEQTPLQEALNQLMRQLQRKDPSAFFSFPVTDFIAPGYSMIIKHPMDFSTMKEKIKNNDYQSIEELKDNFKLMCTNAMIYNKPETIYYKAAKKLLHSGMKILSQERIQSLKQSIDFMADLQKTRKQKDGTDTSQSGEDGGCWQREREDSGDAEAHAFKSPSKENKKKDKDMLEDKFKSNNLEREQEQLDRIVKESGGKLTRRLVNSQCEFERRKPDGTTTLGLLHPVDPIVGEPGYCPVRLGMTTGRLQSGVNTLQGFKEDKRNKVTPVLYLNYGPYSSYAPHYDSTFANISKDDSDLIYSTYGEDSDLPSDFSIHEFLATCQDYPYVMADSLLDVLTKGGHSRTLQEMEMSLPEDEGHTRTLDTAKEMEITEVEPPGRLDSSTQDRLIALKAVTNFGVPVEVFDSEEAEIFQKKLDETTRLLRELQEAQNERLSTRPPPNMICLLGPSYREMHLAEQVTNNLKELAQQVTPGDIVSTYGVRKAMGISIPSPVMENNFVDLTEDTEEPKKTDVAECGPGGS	4	4	–	–	2	2	–	–	1	1	5	4	–	–
RBM39 (protein, UniProt Q14498 2-530, looked up) RNA-binding protein 39: ADDIDIEAMLEAPYKKDENKLSSANGHEERSKKRKKSKSRSRSHERKRSKSKERKRSRDRERKKSKSRERKRSRSKERRRSRSRSRDRRFRGRYRSPYSGPKFNSAIRGKIGLPHSIKLSRRRSRSKSPFRKDKSPVREPIDNLTPEERDARTVFCMQLAARIRPRDLEEFFSTVGKVRDVRMISDRNSRRSKGIAYVEFVDVSSVPLAIGLTGQRVLGVPIIVQASQAEKNRAAAMANNLQKGSAGPMRLYVGSLHFNITEDMLRGIFEPFGRIESIQLMMDSETGRSKGYGFITFSDSECAKKALEQLNGFELAGRPMKVGHVTERTDASSASSFLDSDELERTGIDLGTTGRLQLMARLAEGTGLQIPPAAQQALQMSGSLAFGAVAEFSFVIDLQTRLSQQTEASALAAAASVQPLATQCFQLSNMFNPQTEEEVGWDTEIKDDVIEECNKHGGVIHIYVDKNSAQGNVYVKCPSIAAAIAAVNALHGRWFAGKMITAAYVPLPTYHNLFPDSMTATQLLVPSRR	4	4	–	–	–	–	–	–	2	2	3	3	3	3
TRIM28 (protein, UniProt Q13263 2-835, looked up) Transcription intermediary …: AASAAAASAAAASAASGSPGPGEGSAGGEKRSTAPSAAASASASAAASSPAGGGAEALELLEHCGVCRERLRPEREPRLLPCLHSACSACLGPAAPAAANSSGDGGAAGDGTVVDCPVCKQQCFSKDIVENYFMRDSGSKAATDAQDANQCCTSCEDNAPATSYCVECSEPLCETCVEAHQRVKYTKDHTVRSTGPAKSRDGERTVYCNVHKHEPLVLFCESCDTLTCRDCQLNAHKDHQYQFLEDAVRNQRKLLASLVKRLGDKHATLQKSTKEVRSSIRQVSDVQKRVQVDVKMAILQIMKELNKRGRVLVNDAQKVTEGQQERLERQHWTMTKIQKHQEHILRFASWALESDNNTALLLSKKLIYFQLHRALKMIVDPVEPHGEMKFQWDLNAWTKSAEAFGKIVAERPGTNSTGPAPMAPPRAPGPLSKQGSGSSQPMEVQEGYGFGSGDDPYSSAEPHVSGVKRSRSGEGEVSGLMRKVPRVSLERLDLDLTADSQPPVFKVFPGSTTEDYNLIVIERGAAAAATGQPGTAPAGTPGAPPLAGMAIVKEEETEAAIGAPPTATEGPETKPVLMALAEGPGAEGPRLASPSGSTSSGLEVVAPEGTSAPGGGPGTLDDSATICRVCQKPGDLVMCNQCEFCFHLDCHLPALQDVPGEEWSCSLCHVLPDLKEEDGSLSLDGADSTGVVAKLSPANQRKCERVLLALFCHEPCRPLHQLATDSTFSLDQPGGTLDLTLIRARLQEKLSPPYSSPQEFAQDVGRMFKQFNKLTEDKADVQSIIGLQRFFETRMNEAFGDTKFSAVLVEPPPMSLPGAGLSSQELSGGPGDGP	4	4	–	–	–	–	–	–	1	1	–	–	–	–
ACIN1 (protein, UniProt Q9UKV3 1-1341, looked up) Apoptotic chromatin …: MWRRKHPRTSGGTRGVLSGNRGVEYGSGRGHLGTFEGRWRKLPKMPEAVGTDPSTSRKMAELEEVTLDGKPLQALRVTDLKAALEQRGLAKSGQKSALVKRLKGALMLENLQKHSTPHAAFQPNSQIGEEMSQNSFIKQYLEKQQELLRQRLEREAREAAELEEASAESEDEMIHPEGVASLLPPDFQSSLERPELELSRHSPRKSSSISEEKGDSDDEKPRKGERRSSRVRQARAAKLSEGSQPAEEEEDQETPSRNLRVRADRNLKTEEEEEEEEEEEEDDEEEEGDDEGQKSREAPILKEFKEEGEEIPRVKPEEMMDERPKTRSQEQEVLERGGRFTRSQEEARKSHLARQQQEKEMKTTSPLEEEEREIKSSQGLKEKSKSPSPPRLTEDRKKASLVALPEQTASEEETPPPLLTKEASSPPPHPQLHSEEEIEPMEGPAPAVLIQLSPPNTDADTRELLVSQHTVQLVGGLSPLSSPSDTKAESPAEKVPEESVLPLVQKSTLADYSAQKDLEPESDRSAQPLPLKIEELALAKGITEECLKQPSLEQKEGRRASHTLLPSHRLKQSADSSSSRSSSSSSSSSRSRSRSPDSSGSRSHSPLRSKQRDVAQARTHANPRGRPKMGSRSTSESRSRSRSRSRSASSNSRKSLSPGVSRDSSTSYTETKDPSSGQEVATPPVPQLQVCEPKERTSTSSSSVQARRLSQPESAEKHVTQRLQPERGSPKKCEAEEAEPPAATQPQTSETQTSHLPESERIHHTVEEKEEVTMDTSENRPENDVPEPPMPIADQVSNDDRPEGSVEDEEKKESSLPKSFKRKISVVSATKGVPAGNSDTEGGQPGRKRRWGASTATTQKKPSISITTESLKSLIPDIKPLAGQEAVVDLHADDSRISEDETERNGDDGTHDKGLKICRTVTQVVPAEGQENGQREEEEEEKEPEAEPPVPPQVSVEVALPPPAEHEVKKVTLGDTLTRRSISQQKSGVSITIDDPVRTAQVPSPPRGKISNIVHISNLVRPFTLGQLKELLGRTGTLVEEAFWIDKIKSHCFVTYSTVEEAVATRTALHGVKWPQSNPKFLCADYAEQDELDYHRGLLVDRPSETKTEEQGIPRPLHPPPPPPVQPPQHPRAEQREQERAVREQWAEREREMERRERTRSEREWDRDKVREGPRSRSRSRDRRRKERAKSKEKKSEKKEKAQEEPPAKLLDDLFRKTKAAPCIYWLPLTDSQIVQKEAERAERAKEREKRRKEQEEEEQKEREKEAERERNRQLEREKRREHSRERDRERERERERDRGDRDRDRERDRERGRERDRRDTKRHSRSRSRSTPVRDRGGRR	54	27	–	–	–	–	13	12	–	–	–	–	–	–
FYTTD1 (protein, UniProt Q96QD9 1-318, looked up) UAP56-interacting factor: MNRFGTRLVGATATSSPPPKARSNENLDKIDMSLDDIIKLNRKEGKKQNFPRLNRRLLQQSGAQQFRMRVRWGIQQNSGFGKTSLNRRGRVMPGKRRPNGVITGLAARKTTGIRKGISPMNRPPLSDKNIEQYFPVLKRKANLLRQNEGQRKPVAVLKRPSQLSRKNNIPANFTRSGNKLNHQKDTRQATFLFRRGLKVQAQLNTEQLLDDVVAKRTRQWRTSTTNGGILTVSIDNPGAVQCPVTQKPRLTRTAVPSFLTKREQSDVKKVPKGVPLQFDINSVGKQTGMTLNERFGILKEQRATLTYNKGGSRFVTVG	4	4	–	–	–	–	3	3	–	–	–	–	–	–
